Experimental data published in patent publication US8580773B2, “Small-molecule inhibitors of the androgen receptor” (The Regents of the University of California, priority 2008, dated 2013).
“Also recorded” adds a separate entry of the source. Counter-ions that a name gives are not always drawn. For at least one compound, name, drawing or mass did not settle the structure.

Columns and labels:
prostate [1] = test: Prostate wet weight in FVB male mice after 5 weeks of treatment; assay type: in vivo; details: 5 weeks daily M-F, 1 mg/kg PP, 100 mg/kg BiC, 20 mg/kg THP, or 2 mg/kg THP + 100 mg/kg BiC
LNCaP cells = test: Cell proliferation (DNA content, DAPI) in LNCaP cells; assay type: cell-based, human; details: 3 nM DHT, PP 100 nM, HH 100 nM, BiC 1 μM, seven days
Source text: LN-AR cells were created by retroviral infection of a high-expressing AR vector into LNCaP cells, and proliferate independent of androgen in cell culture, unlike their parental line (Chen, C. D., et al., Molecular determinants of resistance to antiandrogen therapy. Nat Med, 2004. 10(1): p. 33-9). HEK293 cells were used as a control. Cells were transferred to charcoal-stripped media two days before they were split and plated in quadruplicate at a density of approximately 20,000 cells/well in 48-well plates. […] Media were changed every day, using a single preparation to ensure consistent compound concentrations. Proliferation was determined by measuring the DNA content of the cells in each well. Each day, the cells in four wells were fixed in 100% cold methanol, followed by staining for 5 min at RT with 0.2 ng/mL 4′,6-diamidino-2-phenylindole (DAPI) in PBS. The cells were washed once in PBS, then read on a fluorescence plate reader using 365/439 excitation/emission wavelengths. LAPC4 and LNCaP cells proliferated to a much greater degree in the presence of DHT, while LN-AR cells proliferated in the presence and absence of DHT.

dorsal prostate = test: Histology of mouse dorsal prostate after 5 weeks of treatment; assay type: in vivo; details: FVB male mice, THP or BiC alone, or combination
prostate [2] = test: Prostate weight in mice after four weeks of treatment; assay type: in vivo; details: male mice, 5 times per week for four weeks; BiC 100 mg/kg PO, PP 1 mg/kg IP, or the combination
Description: Animals were treated 5 times per week for four weeks. At the end of the study period, animals were sacrificed and prostate tissue weighed. After weighing, the tissue was divided in half for pathological and genetic studies. […] (FIG. 7).

Row | Structure (SMILES) | Change in prostate wet weight (prostate [1]) | Inhibition of cell growth (LNCaP cells) | Atrophy of the dorsal prostate by histological examination (dorsal prostate) | Reduction of prostate weight (prostate [2])
1 | CC(O)(CS(=O)(=O)c1ccc(F)cc1)C(=O)Nc1ccc(C#N)c(C(F)(F)F)c1 (centres unmarked) [BiC, bicalutamide, reference compound] | significant (by analysis of variance) decrease | inhibited significantly | modest atrophy | –
2 | Cc1cc(/C=C/c2ccc3cc(N(C)C)ccc3[n+]2C)c(C)n1-c1ccccc1 [PP, 6-Dimethylamino-2-[2-(2,5-dimethyl-1-phenyl-1H-pyrrol-3-yl)-vinyl]-1-methyl-quinolinium, pamoate salt, reference compound] | significant (by analysis of variance) decrease | – | – | did not produce a statistically significant effect; also recorded: did not significantly reduce prostate size
